For part of these data: The comparison behind a weaker result is the experiment's own reference, which may not be listed here. For part of these data: Tags and fusion partners may be left off the protein sequences shown. For part of these data: At least one result comes from cells or an extract, where the contact may be indirect. For part of these data: A negative result means that nothing was seen under these conditions.
Legend:
[1] = target: T1, RARα1 (yeast) (Homo sapiens) (UniProt P10276); assay: EMSA; settings: data not shown; protein in an extract; protein details: yeast-expressed
T1 sequence (looked up): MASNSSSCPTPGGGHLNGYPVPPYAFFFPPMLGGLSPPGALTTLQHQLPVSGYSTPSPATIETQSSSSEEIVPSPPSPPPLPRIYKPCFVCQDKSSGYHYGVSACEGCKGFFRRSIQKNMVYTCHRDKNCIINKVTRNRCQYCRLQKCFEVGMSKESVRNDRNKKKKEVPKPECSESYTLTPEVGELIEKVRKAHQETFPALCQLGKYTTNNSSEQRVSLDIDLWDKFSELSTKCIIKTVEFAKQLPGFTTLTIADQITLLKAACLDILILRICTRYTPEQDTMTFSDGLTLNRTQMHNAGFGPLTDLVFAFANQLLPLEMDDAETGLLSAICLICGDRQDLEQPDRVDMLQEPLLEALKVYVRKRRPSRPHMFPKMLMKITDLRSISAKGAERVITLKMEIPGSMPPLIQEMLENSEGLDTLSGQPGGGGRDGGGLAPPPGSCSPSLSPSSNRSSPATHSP

Chains of the proteins cited; added tags and fusions are not shown. A line that says so, or that is headed by a name, gives the form on record, which may keep a tag or linker. Residues count along the entry.
UniProt P28700, 140-467, stated change not applied: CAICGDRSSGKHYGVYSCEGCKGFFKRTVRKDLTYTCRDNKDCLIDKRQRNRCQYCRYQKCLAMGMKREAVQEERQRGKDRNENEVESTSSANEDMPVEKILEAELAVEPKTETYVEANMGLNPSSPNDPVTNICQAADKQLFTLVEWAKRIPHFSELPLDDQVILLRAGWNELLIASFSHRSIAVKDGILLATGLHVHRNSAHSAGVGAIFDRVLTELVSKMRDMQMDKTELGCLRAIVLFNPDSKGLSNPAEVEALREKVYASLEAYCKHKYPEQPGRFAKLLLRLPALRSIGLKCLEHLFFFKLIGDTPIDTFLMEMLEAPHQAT
RARα1/RXRα heterodimer (yeast) (Homo sapiens/Mus musculus), one chain, as listed by the source: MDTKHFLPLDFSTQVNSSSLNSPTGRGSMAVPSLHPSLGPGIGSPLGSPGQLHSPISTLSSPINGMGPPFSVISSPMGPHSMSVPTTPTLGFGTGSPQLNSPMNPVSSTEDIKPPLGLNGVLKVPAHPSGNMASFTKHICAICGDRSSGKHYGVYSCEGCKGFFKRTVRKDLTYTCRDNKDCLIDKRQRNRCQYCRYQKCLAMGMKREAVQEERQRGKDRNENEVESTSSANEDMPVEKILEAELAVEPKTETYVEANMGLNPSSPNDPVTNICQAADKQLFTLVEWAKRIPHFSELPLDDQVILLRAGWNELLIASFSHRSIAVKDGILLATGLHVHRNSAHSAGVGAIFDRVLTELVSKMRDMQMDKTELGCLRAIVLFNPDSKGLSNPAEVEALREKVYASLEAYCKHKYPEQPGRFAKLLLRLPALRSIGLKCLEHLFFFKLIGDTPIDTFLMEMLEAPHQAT
RARα1/dnRXRα (yeast) (Homo sapiens/Mus musculus), one chain, as listed by the source: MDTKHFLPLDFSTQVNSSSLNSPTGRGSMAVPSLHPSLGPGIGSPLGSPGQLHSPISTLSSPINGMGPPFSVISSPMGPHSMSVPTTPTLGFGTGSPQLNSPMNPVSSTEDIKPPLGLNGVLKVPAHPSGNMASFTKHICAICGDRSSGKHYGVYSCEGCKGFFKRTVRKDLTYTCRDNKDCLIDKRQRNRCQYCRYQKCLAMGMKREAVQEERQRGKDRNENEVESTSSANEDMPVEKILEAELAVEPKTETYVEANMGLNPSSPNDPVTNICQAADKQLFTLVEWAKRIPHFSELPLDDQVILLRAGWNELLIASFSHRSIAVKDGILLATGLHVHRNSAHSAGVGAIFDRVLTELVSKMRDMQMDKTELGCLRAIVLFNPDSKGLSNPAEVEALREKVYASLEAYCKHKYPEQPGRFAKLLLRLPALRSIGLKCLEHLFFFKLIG

[2] = system: RARα1/RXRα heterodimer (yeast) (Homo sapiens/Mus musculus); assay: EMSA; settings: protein in an extract, protein details: yeast-expressed
[3] = target: RXRα (yeast) (Mus musculus) (UniProt P28700); assay: EMSA; settings: protein in an extract, protein details: yeast-expressed
[4] = target: RXRαΔAB (Mus musculus) (UniProt P28700); assay: activity in cells; settings: yeast; comparable to full length; protein in cells; protein details: yeast-expressed; only the site is given
[5] = system: RARα1/dnRXRα (yeast) (Homo sapiens/Mus musculus); assay: EMSA; settings: retains enhancement of RARα binding; protein in an extract; protein details: yeast-expressed
[6] = target: T1, RARα1 (yeast) (Homo sapiens); assay: activity in cells; settings: all-trans or 9-cis RA, protein in an extract, protein details: yeast-expressed, only the site is given
[7] = target: RXRα (yeast) (Mus musculus) (UniProt P28700); assay: activity in cells; settings: 9-cis RA, protein in an extract, protein details: yeast-expressed, only the site is given

Row | Sequence | binding result [1] | binding result ([3]; data not shown) | binding result [2] | other results
1 | AGGTCAGAGGTCA (double strand) [DR1] | no binding | – | – | binding result ([2]; efficient): binds; binding result ([3]; weak homodimer shift after prolonged autoradiography): binds more weakly; activity on this sequence [4]: active
2 | AGGTCAGCAGGTCA (double strand) [DR2] | no binding | no binding | – | binding result ([2]; spacer and flank dependent): binds more weakly
3 | AGGTCAGCGAAGGTCA (double strand) [DR4] | no binding | no binding | binds more weakly | –
4 | AGGTCAGCGAGAGGTCA (double strand) [DR5] | – | – | – | binding result ([2]; efficient, supershift by anti-RARα): binds; binding result [5]: binds; activity on this sequence [6]: less active; activity on this sequence [7]: less active
5 | AGGTCAGCGAGGTCA (double strand) [DR3] | no binding | no binding | binds more weakly | –
6 | AGGTCATGACCT (double strand) [IR0] | – | – | – | binding result ([2]; after prolonged autoradiography): binds more weakly

Source: patent publication US6635429
